Values from PubChem BioAssay AID1259254 (NCATS, 2017).
Purpose: 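Genome-wide screen for genes that prevent DNA re-replication in cancer cells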 (primary screen). Cell system: human HCT116 colorectal cancer cells. Reagent: single siRNA against human genes. Duration: 3 days. Read-out: 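Imaged Hoechst DNA stain sorts each cell into a cycle phase by DNA amount; per plate, G2 fraction set to 0% for non-targeting and 100% for GMNN siRNA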. Scale: G2 robust z-score: higher = more G2 cells, more excess DNA replication. Call rule: 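An siRNA counts as active if its G2 robust z-score lies at least 5 MADs above the screen median; here such calls match roughly 38% of GMNN control or more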.
The deposit covers about 59,000 reagents; shown is an unselected part. Of all reagents, about 1,550 (2.6%) were called active. 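G2 share is only a proxy for re-replication; each gene was hit by three separate siRNAs, and active genes were retested.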 Entries without a mark were called inactive. The numbers tell different reagents against one gene apart. Not all columns of the deposit are shown. Not given: the amount of reagent.

Silencing of HCAR1 (hydroxycarboxylic acid receptor 1) #1 came out at: G2 robust z-score 4.39.
With knock-down of HCAR1 (hydroxycarboxylic acid receptor 1) #2, the screen gave G2 robust z-score 0.0148.
Against HCAR1 (hydroxycarboxylic acid receptor 1) #3 the deposit lists G2 robust z-score 0.586.
Knock-down of LINC01565 (long independently transcribed non-coding RNA 1565) #1 came out at: G2 robust z-score -0.583.
For LINC01565 (long independently transcribed non-coding RNA 1565) #2, the values are G2 robust z-score 0.571.
LINC01565 (long independently transcribed non-coding RNA 1565) #3 showed G2 robust z-score 0.474.
Silencing of SLC12A3 #1 came out at: G2 robust z-score 2.65.
Silencing of SLC12A3 #2 resulted in: G2 robust z-score 0.15.
SLC12A3 #3 scored G2 robust z-score -0.529.
Against ZNF423 (zinc finger protein 423) #1, the entry reads G2 robust z-score -1.02.
Silencing of ZNF423 (zinc finger protein 423) #2 came out at: G2 robust z-score -0.382.
ZNF423 (zinc finger protein 423) #3 showed G2 robust z-score 0.0416.
With knock-down of UNCX (UNC homeobox) #1 the results were G2 robust z-score 0.347.
UNCX (UNC homeobox) #2 gave G2 robust z-score -1.22.
After knock-down of UNCX (UNC homeobox) #3, the screen gave G2 robust z-score 1.44.
CHST14 (carbohydrate sulfotransferase 14) #1 scored G2 robust z-score 0.056.
Depletion of CHST14 (carbohydrate sulfotransferase 14) #2 came out at: G2 robust z-score -0.0628.
Knock-down of CHST14 (carbohydrate sulfotransferase 14) #3 gave: G2 robust z-score -0.474.
Knock-down of HSPA4L (heat shock protein family A (Hsp70) member 4 like) #1 resulted in: G2 robust z-score -0.477.
HSPA4L (heat shock protein family A (Hsp70) member 4 like) #2 showed G2 robust z-score 0.0131.
HSPA4L (heat shock protein family A (Hsp70) member 4 like) #3 scored G2 robust z-score 1.27.
Against CCDC40 (coiled-coil domain 40 molecular ruler complex subunit) #1, the values are G2 robust z-score -0.194.
Knock-down of CCDC40 (coiled-coil domain 40 molecular ruler complex subunit) #2 gave: G2 robust z-score 1.16.
Silencing of CCDC40 (coiled-coil domain 40 molecular ruler complex subunit) #3 gave: G2 robust z-score -1.09.

4 entries from above, ordered by “G2 robust z-score”, descending.
SLC12A3 #1: G2 robust z-score = 2.65
SLC12A3 #2: G2 robust z-score = 0.15
SLC12A3 #3: G2 robust z-score = -0.529
ZNF423 (zinc finger protein 423) #1: G2 robust z-score = -1.02
